Measured data: PubChem BioAssay AID686937 (Drosophila RNAi Screening Center, 2013)
Screen: 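Genes in the fly needed for secretion of protein constitutively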 (primary screen). Cells: Drosophila S2 cells expressing secreted horseradish peroxidase. Reagents: long dsRNA against Drosophila genes. Duration: about 5.5 days (5 days dsRNA, then 12 h reporter induction). Treatment: reporter expression induced after 5 days of dsRNA, read 12 h later; inducer not stated. Read-out: 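After 5 days of dsRNA and 12 h of reporter induction, medium peroxidase read by chemiluminescence and scored as per-plate z-score; higher values mean more reporter released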. Scale: z-score: higher = more reporter secreted into medium.
The screen tested about 23,000 reagents; shown is an unselected part of those that have a named target and a result. 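Reduced-secretion tags in replicate 1 do not always agree with the z-scores; no criterion for assigning the tags was given.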 Not all columns of the deposit are shown. The record does not give: the amount of reagent.

After knock-down of CG12698 [DRSC19485], the screen gave z-score, replicate 1 = 0.19.
For CycE [DRSC03295], the values are z-score, replicate 1 = -1.41.
Depletion of CycE [DRSC03296] gave: z-score, replicate 1 = -2.4.
Silencing of CG3513 [DRSC00608] resulted in: z-score, replicate 1 = 0.08.
Cul6 [DRSC09830] showed z-score, replicate 1 = 0.25.
CG42540 [DRSC08327] showed z-score, replicate 1 = -0.64.
Depletion of CG42540 [DRSC08328] came out at: z-score, replicate 1 = -0.38.
Silencing of CG42540 [DRSC08593] gave: z-score, replicate 1 = -2.59.
CG17163 [DRSC20901] showed z-score, replicate 1 = 0.42.
CG43072 [DRSC11688] showed z-score, replicate 1 = 0.2.
For CG11168 [DRSC14292] the deposit lists z-score, replicate 1 = 0.23.
With knock-down of CG32302 [DRSC08340] the results were z-score, replicate 1 = 0.17.
mago [DRSC04703] gave z-score, replicate 1 = 0.23.
Against SmD2 [DRSC12536], the entry reads z-score, replicate 1 = -4.68.
For CG34230 [DRSC05317], the values are z-score, replicate 1 = -0.13.
With knock-down of mTerf5 [DRSC16209], the screen gave z-score, replicate 1 = 0.28.
After knock-down of CG14568 [DRSC11729] the results were z-score, replicate 1 = 0.36.
Depletion of CG32695 [DRSC17975] came out at: z-score, replicate 1 = -0.26.
Depletion of CG4829 [DRSC19920] gave: z-score, replicate 1 = 0.23.
After knock-down of wech [DRSC06606] the results were z-score, replicate 1 = 0.13.
Silencing of bab2 [DRSC08150] came out at: z-score, replicate 1 = 0.01.
bab2 [DRSC08380] gave z-score, replicate 1 = 0.64.

4 entries from above, ordered by “z-score, replicate 1”, low to high.
SmD2 [DRSC12536] → z-score, replicate 1 = -4.68
CG34230 [DRSC05317] → z-score, replicate 1 = -0.13
CG32302 [DRSC08340] → z-score, replicate 1 = 0.17
mago [DRSC04703] → z-score, replicate 1 = 0.23

Continued:
msn [DRSC07990] gave z-score, replicate 1 = 0.08.
Silencing of msn [DRSC08498] came out at: z-score, replicate 1 = 0.08.
L2HGDH [DRSC02082] gave z-score, replicate 1 = 0.56.
Against Tsf2 [DRSC09751], the values are z-score, replicate 1 = 0.1.
Silencing of Pgant8 [DRSC10801] came out at: z-score, replicate 1 = -0.55.
betaggt-I [DRSC03494] showed z-score, replicate 1 = 0.14.
With knock-down of gem [DRSC06093] the results were z-score, replicate 1 = 0.46.
After knock-down of gem [DRSC06847], the screen gave z-score, replicate 1 = 0.24.
Knock-down of Ilp7 [DRSC17895] resulted in: z-score, replicate 1 = 0.49.
Knock-down of MED30 [DRSC08516] came out at: z-score, replicate 1 = -0.07.
CG2157 [DRSC19836] gave z-score, replicate 1 = 0.29.
Against CG11980 [DRSC14456] the deposit lists z-score, replicate 1 = 0.34.
Depletion of TER94 [DRSC07560] resulted in: z-score, replicate 1 = -4.68.
Knock-down of LTV1 [DRSC05951] resulted in: z-score, replicate 1 = 0.18.
Pex11ab [DRSC07145] scored z-score, replicate 1 = 0.28.
tous [DRSC04464] showed z-score, replicate 1 = 0.06.
With knock-down of Poxn [DRSC05589], the screen gave z-score, replicate 1 = 0.28.
For Poxn [DRSC07512] the deposit lists z-score, replicate 1 = 0.27.
